B1: DegP (protein, UniProt P0C0V0 27-474)
chain: AETSSATTAQQMPSLAPMLEKVMPSVVSINVEGSTTVNTPRMPRNFQQFFGDDSPFCQEGSPFQSSPFCQGGQGGNGGGQQQKFMALGSGVIIDADKGYVVTNNHVVDNATVIKVQLSDGRKFDAKMVGKDPRSDIALIQIQNPKNLTAIKMADSDALRVGDYTVAIGNPFGLGETVTSGIVSALGRSGLNAENYENFIQTDAAINRGNSGGALVNLNGELIGINTAILAPDGGNIGIGFAIPSNMVKNLTSQMVEYGQVKRGELGIMGTELNSELAKAMKVDAQRGAFVSQVLPNSSAAKAGIKAGDVITSLNGKPISSFAALRAQVGTMPVGSKLTLGLLRDGKQVNVNLELQQSSQNQVDSSSIFNGIEGAEMSNKGKDQGVVVNNVKTGTPAAQIGLKKGDVIIGANQQAVKNIAELRKVLDSKPSVLALNIQRGDSTIYLLMQ
B2: Slp (protein, UniProt P37194 19-188)
chain: CSSIPQNIKGNNQPDIQKSFVAVHNQPGLYVGQQARFGGKVINVINGKTDTLLEISVLPLDSYAKPDIEANYQGRLLARQSGFLDPVNYRNHFVTILGTIQGEQPGFINKVPYNFLEVNMQGIQVWHLREVVNTTYNLWDYGYGAFWPEPGWGAPYYTNAVSQVTPELVK
B3: NarG (protein, UniProt P09152 1-1247)
chain: MSKFLDRFRYFKQKGETFADGHGQLLNTNRDWEDGYRQRWQHDKIVRSTHGVNCTGSCSWKIYVKNGLVTWETQQTDYPRTRPDLPNHEPRGCPRGASYSWYLYSANRLKYPMMRKRLMKMWREAKALHSDPVEAWASIIEDADKAKSFKQARGRGGFVRSSWQEVNELIAASNVYTIKNYGPDRVAGFSPIPAMSMVSYASGARYLSLIGGTCLSFYDWYCDLPPASPQTWGEQTDVPESADWYNSSYIIAWGSNVPQTRTPDAHFFTEVRYKGTKTVAVTPDYAEIAKLCDLWLAPKQGTDAAMALAMGHVMLREFHLDNPSQYFTDYVRRYTDMPMLVMLEERDGYYAAGRMLRAADLVDALGQENNPEWKTVAFNTNGEMVAPNGSIGFRWGEKGKWNLEQRDGKTGEETELQLSLLGSQDEIAEVGFPYFGGDGTEHFNKVELENVLLHKLPVKRLQLADGSTALVTTVYDLTLANYGLERGLNDVNCATSYDDVKAYTPAWAEQITGVSRSQIIRIAREFADNADKTHGRSMIIVGAGLNHWYHLDMNYRGLINMLIFCGCVGQSGGGWAHYVGQEKLRPQTGWQPLAFALDWQRPARHMNSTSYFYNHSSQWRYETVTAEELLSPMADKSRYTGHLIDFNVRAERMGWLPSAPQLGTNPLTIAGEAEKAGMNPVDYTVKSLKEGSIRFAAEQPENGKNHPRNLFIWRSNLLGSSGKGHEFMLKYLLGTEHGIQGKDLGQQGGVKPEEVDWQDNGLEGKLDLVVTLDFRLSSTCLYSDIILPTATWYEKDDMNTSDMHPFIHPLSAAVDPAWEAKSDWEIYKAIAKKFSEVCVGHLGKETDIVTLPIQHDSAAELAQPLDVKDWKKGECDLIPGKTAPHIMVVERDYPATYERFTSIGPLMEKIGNGGKGIAWNTQSEMDLLRKLNYTKAEGPAKGQPMLNTAIDAAEMILTLAPETNGQVAVKAWAALSEFTGRDHTHLALNKEDEKIRFRDIQAQPRKIISSPTWSGLEDEHVSYNAGYTNVHELIPWRTLSGRQQLYQDHQWMRDFGESLLVYRPPIDTRSVKEVIGQKSNGNQEKALNFLTPHQKWGIHSTYSDNLLMLTLGRGGPVVWLSEADAKDLGIADNDWIEVFNSNGALTARAVVSQRVPAGMTMMYHAQERIVNLPGSEITQQRGGIHNSVTRITPKPTHMIGGYAHLAYGFNYYGTVGSNRDEFVVVRKMKNIDWLDGEGNDQVQESVK

By UniProt entry, the sequences of proteins in these tests, tags left out. Residues count along the entry.
UniProt P0AE06, residues 25-397: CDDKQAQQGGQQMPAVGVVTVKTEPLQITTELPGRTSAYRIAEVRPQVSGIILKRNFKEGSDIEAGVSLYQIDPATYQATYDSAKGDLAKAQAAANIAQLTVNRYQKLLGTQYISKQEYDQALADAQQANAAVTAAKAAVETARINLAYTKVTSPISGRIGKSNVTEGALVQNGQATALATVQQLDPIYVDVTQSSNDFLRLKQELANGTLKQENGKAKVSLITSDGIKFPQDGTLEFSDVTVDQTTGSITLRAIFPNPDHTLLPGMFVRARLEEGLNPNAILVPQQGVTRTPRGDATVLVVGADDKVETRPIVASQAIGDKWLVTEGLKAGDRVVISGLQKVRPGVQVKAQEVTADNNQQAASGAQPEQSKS
UniProt P02943, residues 26-446: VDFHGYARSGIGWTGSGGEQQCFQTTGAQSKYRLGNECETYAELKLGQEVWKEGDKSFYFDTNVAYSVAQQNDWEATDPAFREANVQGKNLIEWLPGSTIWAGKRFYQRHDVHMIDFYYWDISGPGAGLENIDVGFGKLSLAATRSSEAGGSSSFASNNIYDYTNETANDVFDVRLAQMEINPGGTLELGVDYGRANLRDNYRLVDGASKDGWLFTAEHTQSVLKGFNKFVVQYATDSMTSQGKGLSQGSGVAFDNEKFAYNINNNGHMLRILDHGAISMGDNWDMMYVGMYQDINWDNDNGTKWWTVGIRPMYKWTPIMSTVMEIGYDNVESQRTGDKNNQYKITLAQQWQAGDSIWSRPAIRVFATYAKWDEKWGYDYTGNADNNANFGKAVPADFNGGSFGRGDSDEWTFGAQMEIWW
UniProt P0A905, residues 18-155: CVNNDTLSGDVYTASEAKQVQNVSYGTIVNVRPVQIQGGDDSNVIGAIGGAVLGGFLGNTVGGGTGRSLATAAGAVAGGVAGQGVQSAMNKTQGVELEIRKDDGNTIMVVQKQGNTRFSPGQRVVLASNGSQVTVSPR
UniProt P31554, residues 25-784: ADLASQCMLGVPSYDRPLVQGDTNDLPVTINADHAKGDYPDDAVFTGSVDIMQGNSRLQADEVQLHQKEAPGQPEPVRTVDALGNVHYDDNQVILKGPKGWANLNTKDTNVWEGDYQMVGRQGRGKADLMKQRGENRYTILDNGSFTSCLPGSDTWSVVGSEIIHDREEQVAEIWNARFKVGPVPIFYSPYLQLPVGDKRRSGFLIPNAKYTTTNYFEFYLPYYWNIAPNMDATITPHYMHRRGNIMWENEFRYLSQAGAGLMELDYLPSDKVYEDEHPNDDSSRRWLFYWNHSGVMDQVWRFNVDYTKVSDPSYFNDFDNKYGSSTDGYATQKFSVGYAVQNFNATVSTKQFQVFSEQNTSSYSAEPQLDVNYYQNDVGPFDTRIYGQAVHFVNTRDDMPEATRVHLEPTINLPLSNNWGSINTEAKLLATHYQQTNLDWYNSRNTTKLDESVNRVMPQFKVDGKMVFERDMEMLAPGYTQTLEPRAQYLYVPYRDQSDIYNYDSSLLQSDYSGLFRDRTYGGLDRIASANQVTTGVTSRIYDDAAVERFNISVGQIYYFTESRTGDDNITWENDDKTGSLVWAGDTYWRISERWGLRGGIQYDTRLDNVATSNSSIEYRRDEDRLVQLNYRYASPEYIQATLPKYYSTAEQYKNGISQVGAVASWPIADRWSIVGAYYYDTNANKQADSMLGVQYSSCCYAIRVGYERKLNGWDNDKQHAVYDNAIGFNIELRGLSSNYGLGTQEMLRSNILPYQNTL

These are yes or no findings as the source states them, for the method shown. In cells and extracts the contact can be indirect. Here binding means that the protein was enriched with, or labelled near, the bait; the list need not be complete. Where a sequence is shown, tags or fusion partners need not be part of it.

This assay deals with T1, His×6-tagged YfgH (E. coli) (UniProt P65290).
T1 sequence: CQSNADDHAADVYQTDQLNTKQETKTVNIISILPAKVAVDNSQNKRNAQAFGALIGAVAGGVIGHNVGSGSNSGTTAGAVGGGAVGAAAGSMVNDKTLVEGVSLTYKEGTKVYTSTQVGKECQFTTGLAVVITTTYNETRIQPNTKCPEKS
Nature of the assay: affinity purification with mass spectrometry.
For FyuA (E. coli (endogenous in MP1)), the binding result was “binds”.

As for AcrA (from UniProt P0AE06 25-397), the binding result is listed as “binds”.

Regarding LamB (from UniProt P02943 26-446), the binding entry was “binds”.

In the case of SlyB (from UniProt P0A905 18-155), the binding entry is on record as “binds”.

For LptD (from UniProt P31554 25-784), the binding result is listed as “binds”.

For ShuA (E. coli (endogenous in MP1)), the binding result is listed as “binds”.

B1: the binding entry is “binds”.

Take B2: the binding entry is listed as “binds”.

In the case of B3, the binding entry was “binds”.

Values taken from article doi:10.64898/2025.12.22.696046.
